# According to the supplement of paper PMC7024190:
# Where a name gives a salt, the structure may show the parent alone. The list shows a part of the results. Repeats in this data set agree poorly, so a single value says little.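 The cells were human embryonic kidney cells carrying a Renilla luciferase gene, driven by the HSV-TK promoter, on a plasmid put in briefly by transfection. This is the first-round screen of about ten thousand compounds, looking for ones that raise reporter output.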
# Tested on: HEK 293FT
# Test: log relative Renilla luciferase luminescence (reporter expression vs reference, reference not stated) (log (base not stated)); higher = higher recombinant reporter expression
# Conditions: 10 µM; time after transfection 48 h
row,Compound,log
1,C[C@@H]1CN(CCCn2c3ccccc3c3ccccc32)C[C@H](C)N1 [Rimcazole dihydrochloride],0.0496
2,O=Nc1c(-c2c(O)[nH]c3ccccc23)[nH]c2ccccc12 [Indirubin-3'-oxime],0.12
3,CCCOc1ccc(Br)cc1-c1cc(-c2ccc(Cl)cc2)[nH]c1-c1ccncc1,-0.0778
